According to BindingDB's records for doi:10.1080/14756360400015256 (Cardiff University, 2005):

Target: T1, Aromatase (Homo sapiens, UniProt P11511)
T1 sequence (P11511 whole entry): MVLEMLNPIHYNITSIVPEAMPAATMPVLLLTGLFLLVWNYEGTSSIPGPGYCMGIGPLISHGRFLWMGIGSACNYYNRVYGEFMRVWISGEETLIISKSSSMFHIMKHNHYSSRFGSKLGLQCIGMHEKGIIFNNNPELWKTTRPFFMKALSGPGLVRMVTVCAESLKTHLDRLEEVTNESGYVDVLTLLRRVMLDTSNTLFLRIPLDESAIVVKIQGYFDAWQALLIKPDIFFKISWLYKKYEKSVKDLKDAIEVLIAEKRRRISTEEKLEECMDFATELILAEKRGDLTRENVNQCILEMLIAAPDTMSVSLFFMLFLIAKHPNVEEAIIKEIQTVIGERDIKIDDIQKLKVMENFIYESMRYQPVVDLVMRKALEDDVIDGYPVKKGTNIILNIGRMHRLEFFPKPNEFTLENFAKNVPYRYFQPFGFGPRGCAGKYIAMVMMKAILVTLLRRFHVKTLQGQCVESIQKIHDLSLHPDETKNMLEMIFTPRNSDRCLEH
Conditions: 37 °C

`CC(C)(C#N)c1cc(Cn2cncn2)cc(C(C)(C)C#N)c1` [NSC719344] showed an IC50 of 600 nM.
